Data taken from the supplement of paper PMC12823440, “Inhibitors supercharge kinase turnover through native proteolytic circuits” (Nature, 2025).
Some of the results follow. Hit calls seldom repeat between salt and free forms of one compound.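 Kinases were expressed as nanoluciferase fusions in K562 cells and luminescence was read every 4 h between 2 and 18 h as percent of control, DMSO set to 100% and a positive control to 0%. A time point counts as decreased when the signal drops significantly (2 sigma). The hit call is the authors' own, does not follow from the count of time points alone, and its rule is not shown.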

Chains of the proteins cited; added tags and fusions are not shown.
UniProt P31152, whole entry: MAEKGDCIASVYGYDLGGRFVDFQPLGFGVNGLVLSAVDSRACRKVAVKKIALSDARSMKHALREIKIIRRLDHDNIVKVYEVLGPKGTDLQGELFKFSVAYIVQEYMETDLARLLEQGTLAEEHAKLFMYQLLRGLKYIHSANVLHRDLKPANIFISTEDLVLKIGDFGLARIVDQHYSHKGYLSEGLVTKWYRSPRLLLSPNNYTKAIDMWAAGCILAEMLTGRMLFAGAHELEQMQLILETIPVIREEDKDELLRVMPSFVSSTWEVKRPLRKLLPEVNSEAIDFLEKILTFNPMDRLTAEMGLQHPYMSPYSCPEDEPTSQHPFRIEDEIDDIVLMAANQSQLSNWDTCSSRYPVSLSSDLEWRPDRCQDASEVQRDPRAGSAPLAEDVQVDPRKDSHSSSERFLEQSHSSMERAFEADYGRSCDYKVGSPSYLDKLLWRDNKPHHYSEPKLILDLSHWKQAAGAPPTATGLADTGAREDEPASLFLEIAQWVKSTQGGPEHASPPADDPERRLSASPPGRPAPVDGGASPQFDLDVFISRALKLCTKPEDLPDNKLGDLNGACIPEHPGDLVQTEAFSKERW

target: MAPK4 (UniProt P31152); experiment: kinase-Nluc reporter destabilization hit call (1 = scored as downregulated) (binary); higher = compound decreases kinase abundance; conditions: K562; 2-18 h

kinase-Nluc reporter destabilization hit call, inactive:
Cc1cc(Nc2cc(Cl)nc(Oc3ccc([N+](=O)[O-])cc3)n2)n[nH]1 [Autophinib] (2.5 µM) 0, CN1CCN(c2ccc(Nc3ncc4nc(Nc5ccccc5)n([C@@H]5CCN(S(=O)(=O)C6CC6)C5)c4n3)cc2)CC1 (2.5 µM) 0, Cc1c(CN2CCN(S(C)(=O)=O)CC2)sc2c(N3CCOCC3)nc(-c3cnc(N)nc3)nc12 (2.5 µM) 0, O=C(NCCCNc1nc(Nc2cccc(NC(=O)N3CCCC3)c2)ncc1I)c1cccs1 (2.5 µM) 0, O=C(/C=C/c1ccc(O[C@@H]2O[C@H](CO)[C@@H](O)[C@H](O)[C@H]2O[C@@H]2OC[C@](O)(CO)[C@H]2O)cc1)c1ccc(O)cc1O [Isoliquiritin apioside] (10 µM) 0, O=C1NC(=O)/C(=C/c2ccc3c(c2)OC(F)(F)O3)S1 (10 µM) 0, COc1ccc([C@@H]2CC(=O)c3c(O)cc(O)cc3O2)cc1O [Hesperetin] (10 µM) 0, N#Cc1c(-c2ccccc2)cc(-c2cc(Br)ccc2O)[nH]c1=O (10 µM) 0, Cc1c(CN2CCN(C(=O)[C@H](C)O)CC2)sc2c(N3CCOCC3)nc(-c3cnc(N)nc3)nc12 [Apitolisib] (10 µM) 0, NC1(Cc2ccc(Cl)cc2)CCN(c2ncnc3[nH]ccc23)CC1 (10 µM) 0, O=C(/C=C/c1ccc(O)c(O)c1)c1ccc(O[C@@H]2O[C@H](CO)[C@@H](O)[C@H](O)[C@H]2O)c(O)c1O [Marein] (10 µM) 0, CN(CC(=O)N(Cc1ccc(C2CCCCC2)cc1)c1ccc(C(=O)O)cc1)S(=O)(=O)c1c(F)c(F)c(F)c(F)c1F (2.5 µM) 0, CC(C)NC(=O)N1CC[C@H](NC2=Nc3cc(F)ccc3N(CC(F)F)c3ccc(Cl)cc32)C1 (10 µM) 0
